Measured values from patent US20150191709, “MODIFIED HELICASES” (OXFORD NANOPORE TECHNOLOGIES LIMITED, published 2015).
Numbering of substitutions follows the chain as printed. The exact form of at least one protein or probe is not confirmed. Tags and fusion partners may be left off the protein sequences shown.

How the values were obtained:
Test in all cases: binding assay
[1] = target: T1, Hel308 Mbu (Methanococcoides burtonii) (UniProt Q12WZ6); conditions: dsDNA turnover, reference; 400 mM KCl, 1 mM ATP, 10 mM MgCl2; purified recombinant protein
T1 sequence: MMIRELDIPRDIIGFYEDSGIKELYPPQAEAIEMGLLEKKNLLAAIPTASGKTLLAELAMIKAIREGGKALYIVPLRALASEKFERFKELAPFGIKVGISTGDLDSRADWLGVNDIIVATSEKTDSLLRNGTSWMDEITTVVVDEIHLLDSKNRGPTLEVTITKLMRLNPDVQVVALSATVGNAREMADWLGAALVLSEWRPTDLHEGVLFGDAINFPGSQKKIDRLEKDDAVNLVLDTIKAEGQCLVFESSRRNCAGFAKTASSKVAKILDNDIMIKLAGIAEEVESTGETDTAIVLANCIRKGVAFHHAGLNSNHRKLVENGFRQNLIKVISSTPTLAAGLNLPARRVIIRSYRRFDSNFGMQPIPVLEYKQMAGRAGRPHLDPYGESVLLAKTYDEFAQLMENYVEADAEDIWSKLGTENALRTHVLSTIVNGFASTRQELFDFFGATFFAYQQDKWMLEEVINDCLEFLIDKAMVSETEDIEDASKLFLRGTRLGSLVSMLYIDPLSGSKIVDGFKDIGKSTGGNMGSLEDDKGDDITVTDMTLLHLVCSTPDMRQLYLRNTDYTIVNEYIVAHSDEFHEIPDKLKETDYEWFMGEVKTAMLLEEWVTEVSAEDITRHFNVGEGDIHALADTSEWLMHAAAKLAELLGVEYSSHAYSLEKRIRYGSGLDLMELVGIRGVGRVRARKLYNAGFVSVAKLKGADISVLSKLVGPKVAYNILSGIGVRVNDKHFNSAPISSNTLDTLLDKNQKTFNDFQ

[2] = target: T2, Hel308 Mbu-E284C/C301A (Methanococcoides burtonii) (UniProt Q12WZ6); conditions: dsDNA turnover higher than Hel308 Mbu; 400 mM KCl, 1 mM ATP, 10 mM MgCl2; purified recombinant protein
T2 sequence: T1 sequence with E284C, C301A

[3] = target: T3, Hel308 Mbu-E285C (Methanococcoides burtonii) (UniProt Q12WZ6); conditions: dsDNA turnover higher than Hel308 Mbu; 400 mM KCl, 1 mM ATP, 10 mM MgCl2; purified recombinant protein
T3 sequence: T1 sequence with E285C

Measured: binding result

CGTGGTCACGAGGAGCTCGTCCTCACCTCGACGTCTGCACGAGCTTTTTTTTTTTTTTTTTTTTTTTTTTTTTTTTTTTTTTTTTTTT / TTTTTTTTTTTTTTTTTTTTTTTTTTTTTTTTTTTTTTTTTTTTGCTCGTGCAGACGTCGAGGTGAGGACGAGCTCCTCGTGACCACG [fluorescent turnover substrate]
binds: all assays above
